# Results are given in words; binding and its absence hold for the method and conditions named. Binding seen in cells or lysates may run through a third protein. Some results given as binding are weak or reduced against the parent protein; the word gives no strength. Sequences can lack the tags named with a protein.
# T1: Flag- and HA-tagged Sting (F/HA-Sting), Stimulator of interferon genes (UniProt Q3TBT3)
# T1 sequence: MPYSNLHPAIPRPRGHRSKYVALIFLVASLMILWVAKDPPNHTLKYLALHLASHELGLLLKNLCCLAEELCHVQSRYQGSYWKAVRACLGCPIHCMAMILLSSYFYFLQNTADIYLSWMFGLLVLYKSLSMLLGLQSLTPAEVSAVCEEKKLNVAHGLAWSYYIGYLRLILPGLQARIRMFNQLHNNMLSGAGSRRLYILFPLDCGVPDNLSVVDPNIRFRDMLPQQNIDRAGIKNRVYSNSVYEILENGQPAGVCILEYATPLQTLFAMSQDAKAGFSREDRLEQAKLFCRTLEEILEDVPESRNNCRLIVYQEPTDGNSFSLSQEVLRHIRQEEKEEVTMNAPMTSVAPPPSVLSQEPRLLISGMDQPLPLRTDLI
# Target: T1, Flag- and HA-tagged Sting (F/HA-Sting), Stimulator of interferon genes
# Test: co-IP
binder,measurement,value
"Fatty acid desaturase 2 (Fads2), endogenous in MEF (enzyme, UniProt Q9Z0R9 1-444) MGKGGNQGEGSTERQAPMPTFRWEEIQKHNLRTDRWLVIDRKVYNVTKWSQRHPGGHRVIGHYSGEDATDAFRAFHLDLDFVGKFLKPLLIGELAPEEPSLDRGKSSQITEDFRALKKTAEDMNLFKTNHLFFFLLLSHIIVMESLAWFILSYFGTGWIPTLVTAFVLATSQAQAGWLQHDYGHLSVYKKSIWNHVVHKFVIGHLKGASANWWNHRHFQHHAKPNIFHKDPDIKSLHVFVLGEWQPLEYGKKKLKYLPYNHQHEYFFLIGPPLLIPMYFQYQIIMTMISRRDWVDLAWAISYYMRFFYTYIPFYGILGALVFLNFIRFLESHWFVWVTQMNHLVMEIDLDHYRDWFSSQLAATCNVEQSFFNDWFSGHLNFQIEHHLFPTMPRHNLHKIAPLVKSLCAKHGIEYQEKPLLRALIDIVSSLKKSGELWLDAYLHK",binding,binds

# — article doi:10.1101/2020.12.22.423950
